Consider one molecule from article PMC4419654, “LSD1 and HY5 antagonistically regulate red light induced-programmed cell death in Arabidopsis” (Frontiers in Plant Science, 2015).

No constants are given. Whether binding was seen depends on the method and setting.

Experiment [1] has as its target lesion simulating disease 1 (LSD1) (Arabidopsis (endogenous in Arabidopsis Col-0 plants)) (UniProt P94077). The experiment can be described thus: condition: only control plants, without RL treatment; immunoblot of plant extract made without DTT; total protein of control (normal light) WT plants extracted without DTT; LSD1 detected. Background: A western blot detects proteins with antibodies after separation by electrophoresis.

Experiment [2] has the same target. The experiment can be described thus: condition: only with DTT (50 mM) in the extraction buffer; immunoblot of plant extract made with DTT; total protein of control, RL, DCMU and DCMU + RL treated WT plants extracted with 50 mM DTT in the extraction buffer; LSD1 detected.

B1: lesion simulating disease 1 (LSD1) (natural protein, UniProt P94077 1-189, looked up)
chain: MKVADMQDQLVCHGCRNLLMYPRGASNVRCALCNTINMVPPPPPPHDMAHIICGGCRTMLMYTRGASSVRCSCCQTTNLVPAHSNQVAHAPSSQVAQINCGHCRTTLMYPYGASSVKCAVCQFVTNVNMSNGRVPLPTNRPNGTACPPSTSTSTPPSQTQTVVVENPMSVDESGKLVSNVVVGVTTDKK
notes: lesion simulating disease 1 (LSD1), C2C2 zinc finger protein with three zinc finger domains, Arabidopsis; detected with LSD1 antibody (Agrisera); source: endogenous, Arabidopsis WT plant total protein extract
For B1, the binding result in experiment [1] and in experiment [2] was “no binding” throughout.
